From paper doi:10.1101/2024.11.20.624400
No constants are given. Whether binding was seen depends on the method and setting. Some binding calls cover weakened binding; strength is not graded here. Sequences can lack the tags named with a protein.

Protein sequences, listed by entry. Tags and fused reporters are not part of them.
UniProt Q4F883: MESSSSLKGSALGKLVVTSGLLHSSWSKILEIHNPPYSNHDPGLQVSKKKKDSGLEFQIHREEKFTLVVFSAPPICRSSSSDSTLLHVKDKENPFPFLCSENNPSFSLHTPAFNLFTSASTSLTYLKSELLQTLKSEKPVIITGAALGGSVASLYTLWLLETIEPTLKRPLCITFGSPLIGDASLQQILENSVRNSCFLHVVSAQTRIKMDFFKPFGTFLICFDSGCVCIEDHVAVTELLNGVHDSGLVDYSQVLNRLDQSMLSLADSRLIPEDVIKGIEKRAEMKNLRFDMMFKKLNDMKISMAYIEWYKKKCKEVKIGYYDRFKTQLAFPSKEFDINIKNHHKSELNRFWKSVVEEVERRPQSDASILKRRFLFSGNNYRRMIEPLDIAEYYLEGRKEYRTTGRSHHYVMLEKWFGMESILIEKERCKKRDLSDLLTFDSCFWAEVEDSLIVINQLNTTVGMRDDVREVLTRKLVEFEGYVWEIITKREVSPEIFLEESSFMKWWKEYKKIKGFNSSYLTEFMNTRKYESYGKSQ

Target: T1, A. thaliana EDS1, full length, in pDEST-GBKT7 (BD) (A. thaliana) (UniProt Q9SU72)
T1 sequence: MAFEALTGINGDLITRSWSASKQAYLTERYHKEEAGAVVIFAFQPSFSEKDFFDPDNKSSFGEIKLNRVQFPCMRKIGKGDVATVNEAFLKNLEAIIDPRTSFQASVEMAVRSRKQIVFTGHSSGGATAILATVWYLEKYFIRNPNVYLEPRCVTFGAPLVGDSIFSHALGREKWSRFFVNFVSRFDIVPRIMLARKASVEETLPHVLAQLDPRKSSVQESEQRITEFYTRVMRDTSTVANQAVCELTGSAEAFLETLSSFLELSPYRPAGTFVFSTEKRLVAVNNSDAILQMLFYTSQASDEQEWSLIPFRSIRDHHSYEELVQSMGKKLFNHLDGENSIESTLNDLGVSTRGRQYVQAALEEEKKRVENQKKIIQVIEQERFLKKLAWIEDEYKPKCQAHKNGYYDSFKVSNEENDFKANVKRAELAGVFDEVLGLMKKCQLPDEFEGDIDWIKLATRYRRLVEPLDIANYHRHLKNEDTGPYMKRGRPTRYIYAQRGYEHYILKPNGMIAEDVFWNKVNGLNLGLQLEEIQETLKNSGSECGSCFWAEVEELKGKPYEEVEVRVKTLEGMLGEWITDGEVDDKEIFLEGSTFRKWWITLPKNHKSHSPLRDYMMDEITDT
Test: two-hybrid

“A. thaliana SAG101, full length, in pDEST-GADT7 (AD) (from UniProt Q4F883 1-537)” was tested, and the binding was “binds”.

B1: A. thaliana PAD4, full length, in pDEST-GADT7 (AD) (protein, UniProt Q9S745 1-541)
chain: MDDCRFETSELQASVMISTPLFTDSWSSCNTANCNGSIKIHDIAGITYVAIPAVSMIQLGNLVGLPVTGDVLFPGLSSDEPLPMVDAAILKLFLQLKIKEGLELELLGKKLVVITGHSTGGALAAFTALWLLSQSSPPSFRVFCITFGSPLLGNQSLSTSISRSRLAHNFCHVVSIHDLVPRSSNEQFWPFGTYLFCSDKGGVCLDNAGSVRLMFNILNTTATQNTEEHQRYGHYVFTLSHMFLKSRSFLGGSIPDNSYQAGVALAVEALGFSNDDTSGVLVKECIETATRIVRAPILRSAELANELASVLPARLEIQWYKDRCDASEEQLGYYDFFKRYSLKRDFKVNMSRIRLAKFWDTVIKMVETNELPFDFHLGKKWIYASQFYQLLAEPLDIANFYKNRDIKTGGHYLEGNRPKRYEVIDKWQKGVKVPEECVRSRYASTTQDTCFWAKLEQAKEWLDEARKESSDPQRRSLLREKIVPFESYANTLVTKKEVSLDVKAKNSSYSVWEANLKEFKCKMGYENEIEMVVDESDAMET
For B1, the binding was “binds”.
